# Over roughly 33,000 sequences, “E-score (-0.5 to 0.5)” has its median near -0.0034; the highest 2% begin near 0.25. This is one part of the list.
# Biological target: T1, Yap3 (UniProt P38749)
# T1 sequence: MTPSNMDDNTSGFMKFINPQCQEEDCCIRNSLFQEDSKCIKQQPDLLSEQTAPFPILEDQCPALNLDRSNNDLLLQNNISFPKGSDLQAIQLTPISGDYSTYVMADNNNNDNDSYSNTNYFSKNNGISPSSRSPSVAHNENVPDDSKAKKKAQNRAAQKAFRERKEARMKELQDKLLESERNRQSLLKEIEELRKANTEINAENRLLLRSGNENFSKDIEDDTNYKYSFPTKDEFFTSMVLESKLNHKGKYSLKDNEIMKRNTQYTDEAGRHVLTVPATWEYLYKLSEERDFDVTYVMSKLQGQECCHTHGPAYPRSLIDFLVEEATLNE
# Assay: PBM E-score (8-mer binding enrichment) (E-score (-0.5 to 0.5)); higher = stronger / more preferred TF binding
# Settings: protein concentration: 100 nM; construct: GST-full length
# Outline: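 GST-tagged yeast TFs (full-length or DNA-binding domain) were made by PURExpress in vitro transcription/translation and applied at about 100-200 nM to universal all-10-mer Agilent arrays. The arrays were made double-stranded by primer extension, on fresh or once-stripped slides. Bound protein was detected with fluorescent anti-GST, and scans were normalised with masliner. Each ungapped eight-base word, pooled with its reverse complement, received an E-score (modified Wilcoxon-Mann-Whitney statistic) from the Universal PBM Analysis Suite.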
row,Sequence,PBM E-score
1,ATACGTCG,0.0457
2,AGCCCGCT,-0.187
3,AAAGACAT,0.102
4,TACAAATA,0.299
5,ACGGACTG,-0.0873
6,CGCCTGCA,-0.0498
7,CGAACTAA,0.198
8,AACTAGGG,-0.0932
9,ACAAAAAA,0.234
10,CCCGCAAA,0.106
11,AAACAAAA,0.185
12,TACCTAGA,-0.0956
13,CGCGAGAA,-0.118
14,CAGGAAAA,0.131
15,CACTGTCA,0.0577
16,CTCGCCTA,0.0188
17,CCGTATGC,0.0186
18,CAGTTAAA,0.138
19,AGCCCTCG,-0.155
20,TTCTTAAA,-0.055
21,AACAGATG,-0.0111
22,CAGAAGGA,-0.283
23,GCGCGACC,0.0585
24,GTCCATGA,-0.224
25,AACCTAAG,0.0818

row,Sequence,PBM E-score
1,AAGGGTCT,-0.135
2,CTTGGATA,-0.057
3,ACCAGTAG,-0.155
4,ATTGGCGA,0.0133
5,GTTTAGGA,-0.137
6,AGAGCGGA,-0.073
7,AATCACCT,0.135
8,AAACTCTC,-0.0171
9,CGAACCCA,-0.181
10,CATGGTTA,0.104
11,AAGGACTT,-0.36
12,AGCCTCAT,-0.158
13,ATCTCATC,0.156
14,CAAATCCA,0.151
15,CGCCACCG,-0.127
16,AGTGTGAG,-0.00503
17,CTGTACGA,0.0353
18,AACGATAA,0.0431
19,CATTACGA,0.149
20,ATAACCCG,-0.26
21,CCGATTCG,0.211
22,ACGGTCAA,0.0988
23,CCTGGGAA,-0.0567
24,CCTGATCA,-0.152
25,CGTCATCC,0.157

row,Sequence,PBM E-score
1,AAAGGATC,0.0884
2,ACAATGCC,0.0768
3,ATAAAGGG,-0.0519
4,GCCTTGCA,-0.148
5,AGCATCTC,-0.0525
6,CCTCTAAA,0.0577
7,AGGACGTC,0.0293
8,AGCAGAGC,-0.243
9,CACCATCG,-0.299
10,ACCCTCTC,-0.291
11,GACTGTAC,-0.129
12,CTCGCAAA,-0.0493
13,GTCCCTAA,-0.0748
14,GCACAAAA,0.122
15,ATTGCGCG,0.173
16,CATAAGGC,0.09
17,GGAAGCAA,-0.11
18,GACACGGC,0.0159
19,ATCATTTA,0.188
20,AAAGATAT,0.196
21,ACCTAATC,0.245
22,GAAACATC,-0.0874
23,GAATGCCC,-0.0828
24,ATGTGGAG,0.0173
25,CACGCCCG,-0.137

row,Sequence,PBM E-score
1,CCAGATTC,-0.373
2,TCGCAGCA,0.0578
3,GTGATACA,0.142
4,TCGCATAA,0.253
5,CATCCGTC,0.132
6,CGACAATA,0.239
7,AGATTGCC,-0.0847
8,CTCCCAAG,-0.167
9,GTCCTTCA,-0.0904
10,ATGCCTGA,-0.0455
11,ATTAGCCC,0.0454
12,CTCACGTA,0.039
13,ACATACAA,0.106
14,GACCTGCA,-0.105
15,AAGTTTAA,-0.0802
16,AAAGGGTT,-0.0977
17,CGAACGTC,-0.113
18,AATACAGT,0.173
19,AGGTGCTG,-0.146
20,AAAATTAG,0.227
21,AACGAGAC,-0.00753
22,CATACAAA,0.193
23,CACTCGGG,-0.0909
24,CCCCAGCG,-0.238
25,TACCCCAA,0.0397

# A different layout for some results above:
row	Sequence	PBM E-score
4	ATTGGCGA	0.0133
5	GTTTAGGA	-0.137
6	AGAGCGGA	-0.073
7	AATCACCT	0.135
8	AAACTCTC	-0.0171
9	CGAACCCA	-0.181
10	CATGGTTA	0.104
11	AAGGACTT	-0.36
12	AGCCTCAT	-0.158
13	ATCTCATC	0.156
14	CAAATCCA	0.151
15	CGCCACCG	-0.127
16	AGTGTGAG	-0.00503
17	CTGTACGA	0.0353
18	AACGATAA	0.0431
19	CATTACGA	0.149
20	ATAACCCG	-0.26
21	CCGATTCG	0.211
22	ACGGTCAA	0.0988
23	CCTGGGAA	-0.0567
24	CCTGATCA	-0.152
25	CGTCATCC	0.157
1	AAAGGATC	0.0884
2	ACAATGCC	0.0768
3	ATAAAGGG	-0.0519
4	GCCTTGCA	-0.148
5	AGCATCTC	-0.0525
6	CCTCTAAA	0.0577
7	AGGACGTC	0.0293
8	AGCAGAGC	-0.243
9	CACCATCG	-0.299
10	ACCCTCTC	-0.291
11	GACTGTAC	-0.129
12	CTCGCAAA	-0.0493
13	GTCCCTAA	-0.0748
14	GCACAAAA	0.122
15	ATTGCGCG	0.173
16	CATAAGGC	0.09
17	GGAAGCAA	-0.11
18	GACACGGC	0.0159
19	ATCATTTA	0.188

# (continued)

row,Sequence,PBM E-score
1,AAACCCTG,-0.00746
2,CTCTAATA,0.0435
3,ACCTCGTG,0.0214
4,AACAGCCA,0.0566
5,AAGGGTTC,-0.0876
6,ACTTATTG,0.0515
7,ATTATGTG,0.291
8,ACGACCGG,-0.211
9,AAACTGAA,0.11
10,GGGCCTAA,-0.25
11,CGAGTTCA,0.0033
12,AAGGATAC,-0.0343
13,CCACGATA,0.0477
14,CCTTTACA,-0.0856
15,ACTTCGCC,0.114
16,ATGTCGTC,-0.102
17,ATAGACGG,0.15
18,AGCGAGAG,-0.0362
19,CTGACCAG,-0.195
20,AGTTACGC,-0.115
21,GCCACGAC,-0.041
22,TAACTGTA,0.105
23,AGTAGAGG,-0.103
24,CCATGGAA,0.0481
25,GTGTGGAA,0.0389

row,Sequence,PBM E-score
1,CTCTGTTA,0.0122
2,ATTGGAAC,0.157
3,AATGACCT,-0.103
4,GCACTGTA,0.122
5,CTACATCA,0.129
6,AGGTGATG,-0.0661
7,GAAAGGAA,0.0165
8,TAGTATCA,0.219
9,AGTCCGAC,-0.157
10,AGAACGGA,-0.0208
11,ATGGAGAA,0.0653
12,AGCGTTAC,-0.1
13,GGAAATAC,0.149
14,CTACAGTA,0.105
15,CTGTCAGA,-0.107
16,CCTCGACA,-0.0638
17,GACAATAC,0.237
18,TAAGATGA,0.146
19,ATCCGTAG,-0.164
20,CTGCAATC,0.0425
21,CCTGCGCC,-0.233
22,CCCAGGTC,-0.265
23,ATTCTTAC,0.185
24,ATTAGAGG,-0.164
25,AGTCGTTC,-0.0612

row,Sequence,PBM E-score
1,AGATGGAT,-0.0578
2,CACCTCGA,0.208
3,ACTCAAAA,0.0867
4,CATCTCTC,0.0553
5,AAAACTCG,0.149
6,TCACTGAA,0.0615
7,ACGCAACG,0.0692
8,CCCCAGAC,-0.236
9,CACCGTAA,0.0946
10,ATATAGAC,0.123
11,CACACGAG,-0.0983
12,ATTTTGTA,0.218
13,AGATTATA,0.159
14,AAACACGA,0.186
15,ATTCTCCG,0.0807
16,CAGCTTCA,-0.117
17,TCAGCGAA,-0.0747
18,ACTCGAAT,-0.00978
19,CGTAGCGA,-0.0428
20,CTAACGCA,0.0376
21,GAGTCCAC,-0.189
22,ATTGCGGA,0.0449
